The other results are listed elsewhere or left out.
Legend:
Test in all cases: log2 fold change, soluble protein after heating vs DMSO (PISA); higher = thermal stabilisation; K562 lysate, 10 uM; active = over 0.2 and 3.5 SD of the protein, either way, in both replicates (recomputed)
[1] = compound: NCC(=O)Nc1ccc(-n2nc(C(F)(F)F)cc2-c2ccc3c(ccc4ccccc43)c2)cc1
Procedure, shortened: (§1)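 Thermal stability, expressed as log-two fold change relative to solvent controls, is given from duplicates. Crude K562 extract in PBS pH 7.4 with 1 mM MgCl2, at 1 mg/mL protein, was treated with 10 μM compound for 30 min and heated in aliquots for 3 min across 48°C-58°C. After pooling, adjustment to 0.5% NP-40 at 4°C and centrifugation at 21,000xg for 90 min, supernatant protein was measured by TMTpro 16plex LC-MS/MS with channel sums equalised.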

Chains of the proteins cited; added tags and fusions are not shown. Lines headed by an entry give the natural chain unless they say otherwise; changes in a name come on top.
UniProt Q7L9L4: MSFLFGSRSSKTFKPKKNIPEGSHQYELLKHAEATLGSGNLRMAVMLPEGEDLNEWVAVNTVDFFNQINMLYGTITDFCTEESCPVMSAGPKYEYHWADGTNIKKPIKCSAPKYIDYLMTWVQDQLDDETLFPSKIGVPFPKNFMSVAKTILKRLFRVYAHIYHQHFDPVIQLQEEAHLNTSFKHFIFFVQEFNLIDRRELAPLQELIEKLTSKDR
UniProt Q9H3L0: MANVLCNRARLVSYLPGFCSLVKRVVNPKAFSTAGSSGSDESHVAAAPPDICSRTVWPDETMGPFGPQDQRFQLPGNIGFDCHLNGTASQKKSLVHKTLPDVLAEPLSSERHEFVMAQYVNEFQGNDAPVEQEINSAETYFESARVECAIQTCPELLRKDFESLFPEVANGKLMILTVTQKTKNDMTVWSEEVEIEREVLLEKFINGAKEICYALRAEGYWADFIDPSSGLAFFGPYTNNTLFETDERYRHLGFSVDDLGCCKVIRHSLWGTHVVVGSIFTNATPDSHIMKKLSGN
UniProt P50219: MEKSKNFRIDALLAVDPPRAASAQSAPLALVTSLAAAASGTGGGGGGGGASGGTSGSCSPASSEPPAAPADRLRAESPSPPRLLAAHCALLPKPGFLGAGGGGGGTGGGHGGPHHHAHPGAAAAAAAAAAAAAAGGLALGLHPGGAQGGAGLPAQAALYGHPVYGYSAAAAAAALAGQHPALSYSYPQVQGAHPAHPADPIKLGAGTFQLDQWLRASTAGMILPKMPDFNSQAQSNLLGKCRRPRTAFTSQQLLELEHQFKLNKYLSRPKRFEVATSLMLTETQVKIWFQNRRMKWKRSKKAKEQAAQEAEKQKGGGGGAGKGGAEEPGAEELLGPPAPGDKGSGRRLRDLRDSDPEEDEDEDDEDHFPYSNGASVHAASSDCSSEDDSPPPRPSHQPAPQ
UniProt O96007: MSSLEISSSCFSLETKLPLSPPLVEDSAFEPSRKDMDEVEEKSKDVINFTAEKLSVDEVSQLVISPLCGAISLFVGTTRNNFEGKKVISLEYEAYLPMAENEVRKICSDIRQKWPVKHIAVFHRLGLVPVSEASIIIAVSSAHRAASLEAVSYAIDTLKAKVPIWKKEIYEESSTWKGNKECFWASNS
UniProt Q9BVC4, whole entry, looked up: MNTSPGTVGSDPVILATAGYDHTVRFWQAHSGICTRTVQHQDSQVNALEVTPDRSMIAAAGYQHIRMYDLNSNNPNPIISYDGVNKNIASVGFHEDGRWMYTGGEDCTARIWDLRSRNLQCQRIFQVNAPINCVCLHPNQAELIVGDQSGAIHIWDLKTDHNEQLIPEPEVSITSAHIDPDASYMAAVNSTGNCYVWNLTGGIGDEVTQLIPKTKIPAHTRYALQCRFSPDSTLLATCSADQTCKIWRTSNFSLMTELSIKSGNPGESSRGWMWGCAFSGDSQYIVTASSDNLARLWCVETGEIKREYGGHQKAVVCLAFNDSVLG
UniProt P46013: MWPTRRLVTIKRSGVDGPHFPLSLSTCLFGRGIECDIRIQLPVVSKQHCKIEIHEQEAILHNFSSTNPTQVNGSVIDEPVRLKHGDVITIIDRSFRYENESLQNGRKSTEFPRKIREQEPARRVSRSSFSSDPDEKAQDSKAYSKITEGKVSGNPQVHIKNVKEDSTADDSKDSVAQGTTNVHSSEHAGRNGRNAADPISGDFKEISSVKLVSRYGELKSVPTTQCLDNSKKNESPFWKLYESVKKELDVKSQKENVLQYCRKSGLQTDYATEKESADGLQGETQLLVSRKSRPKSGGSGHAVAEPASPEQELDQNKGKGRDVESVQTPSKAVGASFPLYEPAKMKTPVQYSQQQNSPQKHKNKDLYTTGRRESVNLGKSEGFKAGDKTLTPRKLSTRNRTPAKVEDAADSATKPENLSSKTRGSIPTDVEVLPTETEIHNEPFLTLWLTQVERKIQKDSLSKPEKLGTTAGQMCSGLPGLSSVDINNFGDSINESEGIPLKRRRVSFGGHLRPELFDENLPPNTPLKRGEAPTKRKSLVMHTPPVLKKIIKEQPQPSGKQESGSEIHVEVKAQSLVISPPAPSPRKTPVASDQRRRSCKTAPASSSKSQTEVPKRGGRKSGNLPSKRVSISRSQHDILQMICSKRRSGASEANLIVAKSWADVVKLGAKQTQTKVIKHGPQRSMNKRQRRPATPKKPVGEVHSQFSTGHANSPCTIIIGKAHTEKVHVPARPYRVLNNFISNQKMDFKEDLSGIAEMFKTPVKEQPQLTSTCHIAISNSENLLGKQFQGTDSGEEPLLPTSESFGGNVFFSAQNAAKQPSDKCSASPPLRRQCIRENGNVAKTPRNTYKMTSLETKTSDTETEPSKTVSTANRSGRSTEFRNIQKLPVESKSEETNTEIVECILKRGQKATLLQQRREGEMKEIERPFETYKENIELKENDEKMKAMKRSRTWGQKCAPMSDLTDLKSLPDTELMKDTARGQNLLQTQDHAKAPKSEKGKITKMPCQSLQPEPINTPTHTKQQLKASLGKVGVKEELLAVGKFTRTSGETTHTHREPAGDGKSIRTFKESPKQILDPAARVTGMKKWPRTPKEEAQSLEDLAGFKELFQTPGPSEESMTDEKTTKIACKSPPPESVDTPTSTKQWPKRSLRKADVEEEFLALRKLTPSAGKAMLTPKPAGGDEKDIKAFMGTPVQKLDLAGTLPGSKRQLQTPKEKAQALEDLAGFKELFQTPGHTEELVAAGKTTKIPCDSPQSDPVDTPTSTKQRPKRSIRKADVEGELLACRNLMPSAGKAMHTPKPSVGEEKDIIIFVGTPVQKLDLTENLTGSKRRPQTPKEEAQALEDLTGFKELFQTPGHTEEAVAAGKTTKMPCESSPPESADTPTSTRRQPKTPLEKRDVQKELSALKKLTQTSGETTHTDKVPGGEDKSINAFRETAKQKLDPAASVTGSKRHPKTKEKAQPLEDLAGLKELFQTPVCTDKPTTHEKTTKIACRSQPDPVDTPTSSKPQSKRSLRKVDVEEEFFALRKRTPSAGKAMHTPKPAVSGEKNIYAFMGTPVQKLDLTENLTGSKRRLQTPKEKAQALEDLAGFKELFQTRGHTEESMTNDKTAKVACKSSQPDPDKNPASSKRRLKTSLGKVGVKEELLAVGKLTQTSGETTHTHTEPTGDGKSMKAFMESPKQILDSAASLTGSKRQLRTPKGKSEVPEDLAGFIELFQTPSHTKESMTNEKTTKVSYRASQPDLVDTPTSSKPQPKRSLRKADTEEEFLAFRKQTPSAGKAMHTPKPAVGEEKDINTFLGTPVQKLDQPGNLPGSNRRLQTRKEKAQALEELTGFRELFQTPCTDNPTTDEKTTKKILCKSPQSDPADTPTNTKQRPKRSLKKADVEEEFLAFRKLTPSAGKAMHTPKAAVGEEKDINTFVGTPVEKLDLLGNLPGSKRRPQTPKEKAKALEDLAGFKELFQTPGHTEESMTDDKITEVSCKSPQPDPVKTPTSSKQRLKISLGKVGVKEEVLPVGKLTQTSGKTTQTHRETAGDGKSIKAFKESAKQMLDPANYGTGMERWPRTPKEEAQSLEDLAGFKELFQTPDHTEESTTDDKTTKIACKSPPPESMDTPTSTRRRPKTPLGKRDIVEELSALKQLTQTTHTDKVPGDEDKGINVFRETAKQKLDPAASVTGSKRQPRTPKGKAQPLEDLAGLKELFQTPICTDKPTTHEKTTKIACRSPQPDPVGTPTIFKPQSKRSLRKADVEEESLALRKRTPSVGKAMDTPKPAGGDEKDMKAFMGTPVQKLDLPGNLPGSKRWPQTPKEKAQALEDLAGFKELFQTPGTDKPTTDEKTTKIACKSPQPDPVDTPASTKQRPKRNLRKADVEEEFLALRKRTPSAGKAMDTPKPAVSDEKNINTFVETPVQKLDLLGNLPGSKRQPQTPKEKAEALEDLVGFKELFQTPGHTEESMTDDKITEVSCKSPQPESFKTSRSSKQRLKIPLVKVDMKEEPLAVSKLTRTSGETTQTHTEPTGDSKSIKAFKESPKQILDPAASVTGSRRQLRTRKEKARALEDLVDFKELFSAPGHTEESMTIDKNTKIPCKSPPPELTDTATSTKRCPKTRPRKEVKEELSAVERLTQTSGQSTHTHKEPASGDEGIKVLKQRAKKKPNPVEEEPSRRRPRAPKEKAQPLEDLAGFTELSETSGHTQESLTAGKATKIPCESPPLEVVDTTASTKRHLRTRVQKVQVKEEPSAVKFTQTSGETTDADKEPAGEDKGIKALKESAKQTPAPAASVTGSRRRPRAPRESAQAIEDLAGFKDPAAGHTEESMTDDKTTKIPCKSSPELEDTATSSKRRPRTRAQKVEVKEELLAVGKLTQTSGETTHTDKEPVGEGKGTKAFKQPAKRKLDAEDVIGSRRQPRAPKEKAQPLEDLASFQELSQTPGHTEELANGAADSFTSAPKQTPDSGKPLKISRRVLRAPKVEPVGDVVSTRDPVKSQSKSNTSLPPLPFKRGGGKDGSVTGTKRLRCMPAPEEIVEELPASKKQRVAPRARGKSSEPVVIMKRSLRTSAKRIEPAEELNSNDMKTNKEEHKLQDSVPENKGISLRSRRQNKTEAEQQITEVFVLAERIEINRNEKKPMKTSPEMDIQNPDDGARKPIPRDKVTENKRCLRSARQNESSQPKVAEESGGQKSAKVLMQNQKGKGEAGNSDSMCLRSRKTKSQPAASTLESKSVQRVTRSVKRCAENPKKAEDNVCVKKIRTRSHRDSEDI
UniProt P08473: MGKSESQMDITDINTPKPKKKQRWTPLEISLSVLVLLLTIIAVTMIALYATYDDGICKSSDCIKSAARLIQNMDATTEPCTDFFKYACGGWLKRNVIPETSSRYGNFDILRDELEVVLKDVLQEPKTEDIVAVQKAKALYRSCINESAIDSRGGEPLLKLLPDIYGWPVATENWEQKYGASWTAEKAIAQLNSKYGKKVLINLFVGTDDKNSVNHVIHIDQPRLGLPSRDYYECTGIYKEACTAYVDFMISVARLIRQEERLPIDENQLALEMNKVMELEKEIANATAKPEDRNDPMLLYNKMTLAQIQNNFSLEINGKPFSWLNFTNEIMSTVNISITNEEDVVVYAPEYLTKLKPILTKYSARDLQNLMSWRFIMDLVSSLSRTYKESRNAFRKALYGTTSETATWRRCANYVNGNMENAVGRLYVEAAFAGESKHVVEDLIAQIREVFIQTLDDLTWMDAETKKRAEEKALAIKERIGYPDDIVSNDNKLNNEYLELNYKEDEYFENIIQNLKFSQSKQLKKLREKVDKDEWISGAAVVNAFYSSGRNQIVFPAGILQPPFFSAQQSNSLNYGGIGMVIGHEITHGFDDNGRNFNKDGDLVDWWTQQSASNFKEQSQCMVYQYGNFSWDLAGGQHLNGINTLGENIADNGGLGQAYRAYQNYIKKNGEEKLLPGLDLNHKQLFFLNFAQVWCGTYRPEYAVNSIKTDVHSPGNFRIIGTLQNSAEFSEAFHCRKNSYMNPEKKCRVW
UniProt Q96BX8: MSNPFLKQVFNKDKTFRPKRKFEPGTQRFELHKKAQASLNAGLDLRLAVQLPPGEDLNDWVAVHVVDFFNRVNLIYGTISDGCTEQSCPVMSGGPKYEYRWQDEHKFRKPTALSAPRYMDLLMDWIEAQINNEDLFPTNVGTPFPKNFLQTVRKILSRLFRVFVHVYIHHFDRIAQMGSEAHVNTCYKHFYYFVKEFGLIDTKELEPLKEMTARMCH
UniProt Q14149: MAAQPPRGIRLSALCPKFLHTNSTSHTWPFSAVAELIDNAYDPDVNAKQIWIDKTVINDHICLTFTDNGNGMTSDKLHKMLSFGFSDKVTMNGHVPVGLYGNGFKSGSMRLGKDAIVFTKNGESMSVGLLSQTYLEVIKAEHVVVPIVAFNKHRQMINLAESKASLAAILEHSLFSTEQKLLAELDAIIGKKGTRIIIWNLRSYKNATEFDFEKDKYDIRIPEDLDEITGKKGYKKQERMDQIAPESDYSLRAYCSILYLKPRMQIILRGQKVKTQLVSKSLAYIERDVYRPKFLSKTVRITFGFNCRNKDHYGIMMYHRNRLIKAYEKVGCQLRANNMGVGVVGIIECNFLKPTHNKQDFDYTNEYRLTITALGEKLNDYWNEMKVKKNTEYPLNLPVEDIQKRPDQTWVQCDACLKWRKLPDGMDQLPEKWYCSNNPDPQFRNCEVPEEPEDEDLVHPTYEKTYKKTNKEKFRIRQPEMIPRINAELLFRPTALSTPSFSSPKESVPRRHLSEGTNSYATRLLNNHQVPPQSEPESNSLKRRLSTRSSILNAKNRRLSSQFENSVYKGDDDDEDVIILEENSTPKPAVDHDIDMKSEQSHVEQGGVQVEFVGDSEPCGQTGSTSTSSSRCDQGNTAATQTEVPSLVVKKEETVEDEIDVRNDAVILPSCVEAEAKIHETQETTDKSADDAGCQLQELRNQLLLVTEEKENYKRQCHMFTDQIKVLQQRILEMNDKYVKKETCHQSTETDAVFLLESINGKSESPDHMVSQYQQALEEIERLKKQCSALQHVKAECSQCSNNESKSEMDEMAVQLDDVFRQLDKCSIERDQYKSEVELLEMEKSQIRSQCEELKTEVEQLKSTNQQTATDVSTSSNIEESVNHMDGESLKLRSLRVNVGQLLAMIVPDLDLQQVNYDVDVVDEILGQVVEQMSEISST

vorinostat = compound: O=C(CCCCCCC(=O)Nc1ccccc1)NO [vorinostat]
Procedure, shortened: as §1

silmitasertib = compound: O=C(O)c1ccc2c(c1)nc(Nc1cccc(Cl)c1)c1ccncc12 [silmitasertib]
Procedure, shortened: as §1

[2] = compound: O=C1NC(=O)C(c2cnc3ccccn23)=C1c1cn2c3c(cc(F)cc13)CN(C(=O)N1CCCCC1)CC2
Procedure, shortened: as §1

entospletinib = compound: c1cn2cc(-c3ccc4cn[nH]c4c3)nc(Nc3ccc(N4CCOCC4)cc3)c2n1 [entospletinib]
Procedure, shortened: as §1

Measured: log2 fold change

MPST isoform 2 (UniProt P25325)
inactive: [1] 0.034 | vorinostat -0.058 | silmitasertib 0.005 | [2] -0.021 | entospletinib 0.008

MOB1B isoform 2 (UniProt Q7L9L4)
inactive: [1] 0.014 | vorinostat 0.097 | silmitasertib -0.027 | [2] -0.033 | entospletinib 0.009

MON1B (UniProt Q7L1V2)
inactive: [1] 0.013 | vorinostat -0.103 | silmitasertib 0.06 | [2] 0.006 | entospletinib 0.047

MICU1 isoform 3 (UniProt Q9BPX6)
inactive: [1] -0.085 | vorinostat -0.133 | silmitasertib 0.065 | [2] -0.003 | entospletinib -0.019

MLLT1 (UniProt Q03111)
inactive: [1] 0.043 | vorinostat 0.037 | silmitasertib -0.091 | [2] 0.015 | entospletinib 0.022

MMADHC (UniProt Q9H3L0)
inactive: [1] -0.041 | vorinostat -0.178 | silmitasertib -0.028 | [2] 0.046 | entospletinib -0.011

MRPL21 (UniProt Q7Z2W9)
inactive: [1] 0.067 | vorinostat 0.005 | silmitasertib -0.023 | [2] 0.002 | entospletinib 0.022

MRPL20 (UniProt Q9BYC9)
inactive: [1] 0.012 | vorinostat 0.065 | silmitasertib -0.066 | [2] 0.046 | entospletinib 0.019

MNX1 (UniProt P50219)
inactive: [1] -0.063 | vorinostat -0.102 | silmitasertib 0.03 | [2] -0.01 | entospletinib -0.215

MIB1 (UniProt Q86YT6)
inactive: [1] 0.026 | vorinostat -0.074 | silmitasertib 0.002 | [2] 0.077 | entospletinib -0.009

MGRN1 isoform 2 (UniProt O60291)
inactive: [1] -0.063 | vorinostat 0.178 | silmitasertib 0.005 | [2] 0.096 | entospletinib -0.006

MKRN2 (UniProt Q9H000)
inactive: [1] -0.051 | vorinostat -0.166 | silmitasertib 0.043 | [2] -0.048 | entospletinib 0.001

MRPL14 (UniProt Q6P1L8)
inactive: [1] -0.039 | vorinostat -0.009 | silmitasertib -0.006 | [2] 0.041 | entospletinib 0.013

MRAS (UniProt O14807)
inactive: [1] -0.096 | vorinostat 0.234 | silmitasertib 0 | [2] 0.04 | entospletinib -0.067

MRPL10 isoform 2 (UniProt Q7Z7H8)
inactive: [1] 0.005 | vorinostat 0.035 | silmitasertib -0.027 | [2] -0.027 | entospletinib -0.027

MOCS2 (UniProt O96007)
inactive: [1] -0.044 | vorinostat 0.082 | silmitasertib -0.065 | [2] 0.007 | entospletinib 0.01

MIF4GD isoform 3 (UniProt A9UHW6)
inactive: [1] 0.008 | silmitasertib 0.018 | [2] -0.012 | entospletinib -0.032
active: vorinostat -0.232

MORC2 (UniProt Q9Y6X9)
active: vorinostat -0.328
inactive: [1] 0.014 | silmitasertib 0.103 | [2] -0.015 | entospletinib 0.013

MLST8 (UniProt Q9BVC4)
active: vorinostat -0.357
inactive: [1] 0.006 | silmitasertib 0.104 | [2] 0.046 | entospletinib 0.043

MRPL19 (UniProt P49406)
inactive: [1] 0 | silmitasertib 0.012 | [2] 0.027 | entospletinib -0.054
active: vorinostat -0.311

MKI67 (UniProt P46013)
inactive: [1] -0.051 | vorinostat -0.005 | silmitasertib -0.004 | [2] 0 | entospletinib -0.016

MGAT2 (UniProt Q10469)
inactive: [1] -0.075 | vorinostat 0.045 | silmitasertib 0.012 | [2] -0.004 | entospletinib 0.006

MGST1 (UniProt P10620)
inactive: [1] -0.013 | vorinostat 0.037 | silmitasertib -0.013 | [2] 0.031 | entospletinib -0.01

MME (UniProt P08473)
inactive: vorinostat 0.096 | silmitasertib -0.033 | [2] -0.038

MKKS (UniProt Q9HB66)
inactive: [1] -0.075 | vorinostat 0.164 | silmitasertib -0.008 | entospletinib -0.008

MRC2 (UniProt Q9UBG0)
inactive: vorinostat 0.346 | silmitasertib -0.051 | [2] -0.171 | entospletinib -0.055

MINDY2 (UniProt Q8NBR6)
inactive: [2] 0.015 | entospletinib -0.018

Quoted from the listing (2 entries):
MME (UniProt P08473)
inactive: vorinostat 0.096 | silmitasertib -0.033 | [2] -0.038

MKKS (UniProt Q9HB66)
inactive: [1] -0.075 | vorinostat 0.164 | silmitasertib -0.008 | entospletinib -0.008

Additional records:

MOB3A (UniProt Q96BX8)
inactive: [1] 0.009 | vorinostat 0.07 | silmitasertib -0.016 | [2] -0.013 | entospletinib -0.046

MGAT4B isoform 3 (UniProt Q9UQ53)
inactive: [1] 0.027 | vorinostat 0.097 | silmitasertib 0.013 | [2] 0.097 | entospletinib 0.073

MIDEAS, A0A1C7CYX1
inactive: vorinostat -0.211 | silmitasertib 0.054 | [2] -0.029

MORC3 (UniProt Q14149)
active: vorinostat -0.303
inactive: [1] 0.008 | silmitasertib -0.01 | [2] 0.005 | entospletinib 0.009

MRPL18 (UniProt Q9H0U6)
inactive: [1] -0.007 | [2] 0.01 | entospletinib 0.031

— the supplement of paper PMC10849652
